PubChem BioAssay AID1259405 – NCATS – 2018
Here is a random part of about 50,000 reagents tested. About 4,000 of all reagents (8%) were called active. 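Mouse siRNA library applied to hamster cells; one well for each siRNA.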 Entries without a mark were called inactive. The numbers tell different reagents against one gene apart.

Purpose: 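Knock-downs that lift recombinant protein yield in hamster ovary cells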 (primary screen)
System: Chinese hamster CHO-K1 ovary cells with stable secreted eGFP expression
Reagents: single siRNA against mouse genes, 0.8 pmol siRNA per well (2 µl of 400 nM stock)
Duration: 3 days
Read-out: 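Percent of the per-plate non-targeting control median for intracellular GFP per well by laser scanning cytometry and for cell viability by ATP luminescence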
Scale: GFP, % of control: higher = more GFP per well, higher productivity; viability (ATP), % of control: higher = more viable cells (more ATP)
Rule for the call: 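a knock-down is called active if GFP reaches 120% or more of non-targeting control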

gene knocked down,siRNA no.,"GFP, % of control","viability (ATP), % of control"
Shisa5 (shisa family member 5),1,61.6,71.7
Shisa5 (shisa family member 5),2,107,68.4
Shisa5 (shisa family member 5),3,84.9,74.3
N4bp1 (NEDD4 binding protein 1),1,84.5,65.4
N4bp1 (NEDD4 binding protein 1),2,79,71
N4bp1 (NEDD4 binding protein 1),3,68.4,75.3
Slc22a17,1,61.9,63.5
Slc22a17,2,43.3,57.5
Slc22a17,3,67.8,65.7
Rad51ap1 (RAD51 associated protein 1),1,64.6,76
Rad51ap1 (RAD51 associated protein 1),2,88.1,69.6
Rad51ap1 (RAD51 associated protein 1),3,51.8,52
Stx5a (syntaxin 5A),1,155 (active),126
Stx5a (syntaxin 5A),2,88.1,82
Pir (pirin),1,139 (active),84.2
Pir (pirin),2,158 (active),68
Pir (pirin),3,61.5,72
Atg5 (autophagy related 5),1,72.7,101
Atg5 (autophagy related 5),2,57.8,79.2
Atg5 (autophagy related 5),3,62.4,71.5
Or11m3 (olfactory receptor family 11 subfamily M member 3),1,58.3,55.2
Or11m3 (olfactory receptor family 11 subfamily M member 3),2,79.6,74.6
Or11m3 (olfactory receptor family 11 subfamily M member 3),3,70.6,47.5
Creg1 (cellular repressor of E1A-stimulated genes 1),1,73,90
Creg1 (cellular repressor of E1A-stimulated genes 1),2,71.6,101
Creg1 (cellular repressor of E1A-stimulated genes 1),3,63.7,62.7
Zfp128 (zinc finger protein 128),1,92.9,114
Zfp128 (zinc finger protein 128),2,76.9,83.7
Zfp128 (zinc finger protein 128),3,125 (active),106
Eif5a (eukaryotic translation initiation factor 5A),1,95.1,91.3
Eif5a (eukaryotic translation initiation factor 5A),2,65.2,64.9
Eif5a (eukaryotic translation initiation factor 5A),3,81.1,80.7
Phb1 (prohibitin 1),1,59.8,60.3
Phb1 (prohibitin 1),2,59.4,25.8
Phb1 (prohibitin 1),3,102,158
Fkbpl (FK506 binding protein-like),1,95.8,76.7
Fkbpl (FK506 binding protein-like),2,82.8,101
Fkbpl (FK506 binding protein-like),3,80.6,78.1
C2cd2 (C2 calcium-dependent domain containing 2),1,95.8,82.8
C2cd2 (C2 calcium-dependent domain containing 2),2,79.1,87.3
C2cd2 (C2 calcium-dependent domain containing 2),3,101,97.1
Ggcx (gamma-glutamyl carboxylase),1,63.5,79
Ggcx (gamma-glutamyl carboxylase),2,43.2,65
Ggcx (gamma-glutamyl carboxylase),3,53.5,65
"Sod1 (superoxide dismutase 1, soluble)",1,107,59.4
"Sod1 (superoxide dismutase 1, soluble)",2,123 (active),75.5
"Sod1 (superoxide dismutase 1, soluble)",3,100,70.4
Or5an6 (olfactory receptor family 5 subfamily AN member 6),1,60.7,66.6
Or5an6 (olfactory receptor family 5 subfamily AN member 6),2,74.5,82.7
Or5an6 (olfactory receptor family 5 subfamily AN member 6),3,48.4,40.8
Gpx8 (glutathione peroxidase 8 (putative)),1,98.4,69.8
Gpx8 (glutathione peroxidase 8 (putative)),2,78.1,68.9
Gpx8 (glutathione peroxidase 8 (putative)),3,61.7,80.5
Bbln (bublin coiled coil protein),1,128 (active),99.7
Bbln (bublin coiled coil protein),2,69.4,70
Bbln (bublin coiled coil protein),3,84.7,57.2
Pagr1a (PAXIP1 associated glutamate rich protein 1A),1,66.7,67.7
Pagr1a (PAXIP1 associated glutamate rich protein 1A),2,32.2,19.3
Pagr1a (PAXIP1 associated glutamate rich protein 1A),3,75.4,44.4
Rrp1b (ribosomal RNA processing 1B),1,65.2,69.1
Rrp1b (ribosomal RNA processing 1B),2,46.6,51.7
Rrp1b (ribosomal RNA processing 1B),3,59.1,50.9
Rnf144a (ring finger protein 144A),1,91.6,87.2
Rnf144a (ring finger protein 144A),2,112,77.4
Rnf144a (ring finger protein 144A),3,116,131
Rac2 (Rac family small GTPase 2),1,101,88.5
Rac2 (Rac family small GTPase 2),2,80.6,91.7
Rac2 (Rac family small GTPase 2),3,61.6,64.4
Msh3 (mutS homolog 3),1,86.3,106
Msh3 (mutS homolog 3),2,184 (active),98
Msh3 (mutS homolog 3),3,66.3,67.6
Or6aa1 (olfactory receptor family 6 subfamily AA member 1),1,62.9,25
Or6aa1 (olfactory receptor family 6 subfamily AA member 1),2,52.3,55.3
Or6aa1 (olfactory receptor family 6 subfamily AA member 1),3,34.4,89
Or7e174 (olfactory receptor family 7 subfamily E member 174),1,76.1,57.4
Or7e174 (olfactory receptor family 7 subfamily E member 174),2,78.9,46.5
Or7e174 (olfactory receptor family 7 subfamily E member 174),3,112,108
"Polg2 (polymerase (DNA directed), gamma 2, accessory subunit)",1,67.4,56.7
"Polg2 (polymerase (DNA directed), gamma 2, accessory subunit)",2,86,103
Or8k39 (olfactory receptor family 8 subfamily K member 39),1,98.8,41.3
Or8k39 (olfactory receptor family 8 subfamily K member 39),2,77.4,63.8
Or8k39 (olfactory receptor family 8 subfamily K member 39),3,52.8,121
Kif3c (kinesin family member 3C),1,88.9,46.8
Kif3c (kinesin family member 3C),2,91.4,97.7

Just “viability (ATP), % of control”, for 9 of the entries above:
Rad51ap1 (RAD51 associated protein 1) #2: 69.6
Rad51ap1 (RAD51 associated protein 1) #3: 52
Stx5a (syntaxin 5A) #1: 126 (active)
Stx5a (syntaxin 5A) #2: 82
Pir (pirin) #1: 84.2 (active)
Pir (pirin) #2: 68 (active)
Pir (pirin) #3: 72
Atg5 (autophagy related 5) #1: 101
Atg5 (autophagy related 5) #2: 79.2
